# According to PubChem BioAssay AID1347076 (National Center for Advancing Translational Sciences (NCATS), 2019):
# The campaign covered roughly 400,000 compounds. About 13,000 (3.2%) were called active. Inconclusive means that the source gave no clear call. Such entries were picked first, then a sample of the others. The call rests on the fitted dose curve; in most records, active means well fitted cell-killing curve with a large enough effect; inconclusive means small, poorly fitted or top-dose-only effect, or effect the other way; inactive means flat fitted curve, though single readings scatter. Where the call is inconclusive, the potency comes from a doubtful curve fit. Where a structure was tested more than once in an assay, its records may differ in their call.
# Assay: qHTS assay for MDR1-selective chemotherapeutics: Primary screen using the drug-selected MDR subline cells KB-V1; further: nearly all actives have a fitted effect of over 60% in size
# Conditions: KB-V1 MDR cells viability, CellTiter-Glo, 72 h; activity change, negative = cytotoxicity: at 46.1 µM (top of the series)
# In short: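 Compound-treated KB-V1 multidrug-resistant cells, 72 h, 37 degrees C; viability by CellTiter-Glo. Fitted qHTS curves give the values.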
# On the % scale 0 is the no-effect control and ±100 the full control effect; potency means the concentration at half of the fitted maximal effect.
Structure (SMILES),"activity change, negative = cytotoxicity",Potency
Cc1cccc(-n2c(N)cc(=O)nc2SCC(=O)Nc2ccc(F)cc2)c1C,inactive: 18.7%,
Cn1cc(Cl)c(C(=O)Nc2nccs2)n1,,"inconclusive: 16.4 µM [rising, single point]"
CCOC(=O)Cc1csc(NC(=O)C2C3C=CC(C3)C2C(=O)O)n1 (configuration not stated),,"inconclusive: 20.6 µM [rising, partial curve, poor fit]"
C=CCn1c(COc2ccc(F)cc2)nnc1SCC(=O)c1c[nH]c2c(CC)cccc12,,active: 13 µM
COc1ccc(-n2cnnc2SCC(=O)Nc2cc(S(=O)(=O)N3CCCCC3)ccc2C)cc1,,"inconclusive: 16.4 µM [cytotoxic, single point]"
COC(=O)[C@@]1(C(C)C)N=C(c2cc(OC)c(OC)c(OC)c2)[C@]2(O1)C(=O)N(C)c1ccc(Cl)cc12,inactive: 16.7%,
CCOC(=O)C1CCCN(C(=O)/C=C/c2ccc([N+](=O)[O-])cc2)C1 (configuration not stated),,"inconclusive: 20.6 µM [cytotoxic, single point]"
CCc1ccc(NC(=O)CSc2ccc3nc(-c4ccc(OC)cc4)cn3n2)cc1,inactive: -2.77%,
COc1ccc(NC(=O)c2ccc(-c3ccc(-c4noc(C)n4)cc3C)cc2)cc1N1CCN(C)CC1,,"inconclusive: 20.6 µM [cytotoxic, partial curve, poor fit]"
COc1cc(F)ccc1CN1CCC(C(=O)Nc2ccc(Oc3ccccc3)nc2)CC1,,"inconclusive: 3.26 µM [cytotoxic, partial curve, poor fit]"
C[C@H](NC(=O)[C@H]1N2C(=O)c3ccccc3C2SC1(C)C)C(=O)NCc1ccncc1 (some centres not stated),,"inconclusive: 5.17 µM [rising, full curve]"
CN1CC2(Cc3cc([N+](=O)[O-])ccc31)C(=O)OC(C)(C)OC2=O,,"inconclusive: 29.1 µM [rising, single point]"
Cc1ccc(C(=O)NCC(=O)OCc2cc(=O)n3ccsc3n2)cc1,,"inconclusive: 18.4 µM [rising, partial curve, poor fit]"
COc1ccccc1CCNC(=O)C(=O)NCC1CCCN1S(=O)(=O)c1ccccc1 (configuration not stated),,active: 20.6 µM
CCOC(=O)[C@]12CCCC=C1N(Cc1ccc(Cl)cc1Cl)C(=O)[C@H](CC(=O)NCc1ccc(OC)c(OC)c1)C2,,active: 18.4 µM
O=c1c(Br)c(Br)cnn1-c1ccccc1,,"inconclusive: 29.1 µM [rising, partial curve, poor fit]"
CCOc1ncccc1C(=O)N(C)CC(=O)Nc1ccc(F)cc1,,"inconclusive: 10.3 µM [cytotoxic, partial curve, poor fit]"
CCOc1ccc(/C(O)=C2/C(=O)C(=O)N(c3ccccn3)C2c2ccc(C)cc2)c(C)c1 (configuration not stated),,"inconclusive: 29.1 µM [cytotoxic, single point]"
CC(=O)Nc1ccc(-c2nnc3n(Cc4ccc(C)cc4)c(=O)c4ccccc4n23)cc1,inactive: 0.0414%,
CCOc1cc(C(=O)NCc2ccc(F)cc2)ccc1OCC(=O)N1CCCCC1,inconclusive: -48.4%,
CCN1CCN(Cc2ccc(NC(=O)c3ccc(C)c(NC(=O)c4cccc5[nH]ccc45)c3)cc2C(F)(F)F)CC1,,"inconclusive: 10.3 µM [cytotoxic, single point]"
CCOC(=O)C(C)N1C(=O)S/C(=C/c2cc(C)n(-c3ccccn3)c2C)C1=O (configuration not stated),,"inconclusive: 18.4 µM [cytotoxic, single point]"
COC(=O)c1sccc1NC(=O)Cc1ccc(Br)cc1,inconclusive: -36.7%,

# 13 structures already listed, ordered by SMILES length, high to low.
Structure (SMILES),"activity change, negative = cytotoxicity",Potency
CCOC(=O)[C@]12CCCC=C1N(Cc1ccc(Cl)cc1Cl)C(=O)[C@H](CC(=O)NCc1ccc(OC)c(OC)c1)C2,,active: 18.4 µM
COC(=O)[C@@]1(C(C)C)N=C(c2cc(OC)c(OC)c(OC)c2)[C@]2(O1)C(=O)N(C)c1ccc(Cl)cc12,inactive: 16.7%,
CCN1CCN(Cc2ccc(NC(=O)c3ccc(C)c(NC(=O)c4cccc5[nH]ccc45)c3)cc2C(F)(F)F)CC1,,"inconclusive: 10.3 µM [cytotoxic, single point]"
COc1ccc(NC(=O)c2ccc(-c3ccc(-c4noc(C)n4)cc3C)cc2)cc1N1CCN(C)CC1,,"inconclusive: 20.6 µM [cytotoxic, partial curve, poor fit]"
CCOc1ccc(/C(O)=C2/C(=O)C(=O)N(c3ccccn3)C2c2ccc(C)cc2)c(C)c1 (configuration not stated),,"inconclusive: 29.1 µM [cytotoxic, single point]"
COc1ccc(-n2cnnc2SCC(=O)Nc2cc(S(=O)(=O)N3CCCCC3)ccc2C)cc1,,"inconclusive: 16.4 µM [cytotoxic, single point]"
CC(=O)Nc1ccc(-c2nnc3n(Cc4ccc(C)cc4)c(=O)c4ccccc4n23)cc1,inactive: 0.0414%,
C=CCn1c(COc2ccc(F)cc2)nnc1SCC(=O)c1c[nH]c2c(CC)cccc12,,active: 13 µM
CCOC(=O)C1CCCN(C(=O)/C=C/c2ccc([N+](=O)[O-])cc2)C1 (configuration not stated),,"inconclusive: 20.6 µM [cytotoxic, single point]"
COc1cc(F)ccc1CN1CCC(C(=O)Nc2ccc(Oc3ccccc3)nc2)CC1,,"inconclusive: 3.26 µM [cytotoxic, partial curve, poor fit]"
CCOc1cc(C(=O)NCc2ccc(F)cc2)ccc1OCC(=O)N1CCCCC1,inconclusive: -48.4%,
CCOC(=O)Cc1csc(NC(=O)C2C3C=CC(C3)C2C(=O)O)n1 (configuration not stated),,"inconclusive: 20.6 µM [rising, partial curve, poor fit]"
O=c1c(Br)c(Br)cnn1-c1ccccc1,,"inconclusive: 29.1 µM [rising, partial curve, poor fit]"

# More records

Structure (SMILES),"activity change, negative = cytotoxicity",Potency
CC(=O)NC1Sc2ccccc2N=C1c1ccccc1 (configuration not stated),,"inconclusive: 29.1 µM [rising, single point]"
Cn1nc(-c2ccncc2)nc2c(=O)n(C)c(=O)nc1-2,,"inconclusive: 1.64 µM [cytotoxic, full curve, poor fit]"
COc1ccc(S(=O)(=O)N(C)CC(=O)Nc2ccc3c(c2)OCCO3)cc1,,"inconclusive: 8.2 µM [cytotoxic, partial curve, poor fit]"
CC(Oc1ccccc1C(N)=O)C(=O)Nc1ccc(S(=O)(=O)N2CCCC2)cc1 (configuration not stated),,"inconclusive: 29.1 µM [cytotoxic, single point]"
COC(=O)[C@@]1(Cc2ccc(F)cc2)[C@H]2c3cc(C(=O)N(C)C)n(Cc4ccc(C)o4)c3C[C@H]2CN1C(=O)c1ccccc1,,active: 16.4 µM
O=c1c(Cl)c(N2CCN(S(=O)(=O)c3ccccc3)CC2)cnn1-c1ccccc1,,"inconclusive: 2.91 µM [cytotoxic, full curve, poor fit]"
CCC(C)[C@H](NC(=O)[C@H](Cc1ccccc1)n1c(=O)[nH]c2ccccc2c1=O)C(=O)N1CCC(C(=O)O)CC1 (some centres not stated),,"inconclusive: 23.1 µM [rising, single point]"
Cc1nn(Cc2ccccc2)c(C)c1CNC(=O)[C@H](C)N=C1NS(=O)(=O)c2ccccc21,,"inconclusive: 18.4 µM [rising, single point]"
CCOCCc1c(O)nc(SCC)[nH]c1=O,inactive: -8.89%,
CCC(=O)N1CCc2cc(Br)cc(S(=O)(=O)N3CCC(C(=O)Nc4ccccc4F)CC3)c21,inactive: -7.16%,
CCCCCOc1ccc(Cn2c(=O)oc3ccc(C)cc32)cc1OC,,"inconclusive: 16.4 µM [cytotoxic, single point]"
COCCn1c(C)cc(C(=O)CSc2nc(C)nc3sc4c(c23)CCC4)c1C,,active: 2.59 µM
Cc1ccc(/C=C/C(=O)O)cc1S(=O)(=O)NCCCO,,"inconclusive: 29.1 µM [rising, single point]"
Cc1ccnc(NC(=O)Cc2ccc([N+](=O)[O-])cc2)c1,,"inconclusive: 29.1 µM [rising, single point]"
Cc1ccc2nc(C(C)(C)C)c(Cc3cccc(Cl)c3)n2c1,inactive: 11.9%,
Cc1c(C(=O)N(C)CC(=O)Nc2cccc(F)c2)oc2c(Cl)cccc12,,"inconclusive: 23.1 µM [cytotoxic, single point]"
O=C1CC(c2cc(F)cc(F)c2)c2cc3c(cc2N1)OCO3 (configuration not stated),inactive: 0%,
Cc1cc(C)cc(C(=O)n2nc(C)c(S(=O)(=O)N3CCCCCC3)c2C)c1,inactive: -3.71%,
O=C(CSc1nnc(NC(=O)Cc2ccc(F)cc2)s1)NCc1ccco1,inactive: -19%,
COc1ccc(Br)cc1/C(C)=N/NC1=NCCN1,,"inconclusive: 32.6 µM [cytotoxic, single point]"
COc1ccc(CCNC(=O)c2cc(-c3ccco3)on2)cc1OC,,active: 18.4 µM
COc1cccc(C(=O)Nc2ccc(C(=O)c3ccccc3)cc2)c1,,"inconclusive: 7.31 µM [cytotoxic, partial curve]"
CCOC(CNC(=O)c1ccc(N2CCc3ccccc32)c([N+](=O)[O-])c1)OCC,,active: 2.59 µM

Structure (SMILES),"activity change, negative = cytotoxicity",Potency
CN1CCN(C2=C(Cl)C(=O)N(CCc3ccccc3)C2=O)CC1,inactive: -8.86%,
CCN(C(=O)CSc1nnc(Cn2nnc3ccccc32)o1)c1nc(-c2ccccc2)cs1,,"inconclusive: 5.8 µM [cytotoxic, full curve]"
CN(CC(=O)Nc1ccc(Cl)c(Cl)c1)C(=O)CNC(=O)C1CCCCC1,,"inconclusive: 29.1 µM [cytotoxic, single point]"
COc1cccc(Nc2nc(C(N)Cc3ccccc3)cs2)n1 (configuration not stated),,"inconclusive: 29.1 µM [cytotoxic, single point]"
COc1ccc(C(=O)NCc2cc(C)nc3ccccc23)cc1OC,,"inconclusive: 10.3 µM [cytotoxic, partial curve]"
CC(C)CNC(=O)c1cccc(NC(=O)Cc2ccc(Cl)cc2)c1,,active: 5.8 µM
Cc1ccc(SCCC(=O)NCc2ccncc2)cc1,,"inconclusive: 1.84 µM [rising, partial curve, poor fit]"
CCCCn1nc(C(=O)N(CC)CC(=O)Nc2c(F)cccc2F)c2ccccc2c1=O,inactive: -17.8%,
O=C(Nc1ccc(N2CCN(c3ccc(O)cc3)CC2)cc1)Oc1ccccc1,,"inconclusive: 29.1 µM [cytotoxic, single point]"
CCCCc1nc2cc(C(=O)NCc3cn(C)nc3C)ccc2o1,,"inconclusive: 1.64 µM [cytotoxic, full curve, poor fit]"
CC(C)(C)OC(=O)N1CCC(c2c(C(=O)N3CCN(c4ccccc4F)CC3)cnn2-c2ccccc2Cl)CC1,inactive: 4.46%,
COCCNC(=O)c1ccc2c(c1)ncn2-c1ccc(C)c(Cl)c1,,"inconclusive: 20.6 µM [cytotoxic, single point]"
CCn1c(CSc2nc3ccccc3s2)n[nH]c1=S,inactive: -11.5%,
COC(=O)C1Cc2ccccc2CN1C(=O)CCl (configuration not stated),,"inconclusive: 29.1 µM [cytotoxic, single point]"
Cc1ccc(NS(=O)(=O)c2cc3c(cc2C)OCC(=O)N3)cc1C,,"inconclusive: 18.4 µM [cytotoxic, single point]"
C=CCn1c(SCC(=O)N(CC)C2CCS(=O)(=O)C2)nc2scc(-c3ccccc3)c2c1=O (configuration not stated),,active: 10.3 µM
CCN(CC(=O)NCc1ccc(F)cc1)C(=O)CN1CCN(c2ccccc2OC)CC1,,"inconclusive: 23.1 µM [cytotoxic, partial curve]"
COCCNC(=S)N(CCc1c(C)[nH]c2ccc(F)cc12)Cc1cccs1,,"inconclusive: 32.6 µM [cytotoxic, single point]"
COc1ccc(-c2nc(CS(=O)(=O)CC(=O)NCCCN3CCN(C)CC3)c(C)o2)cc1,,"inconclusive: 16.4 µM [rising, single point]"
O=C(CSc1nc2cc3ccccc3cc2[nH]1)Nc1ccc(F)cc1,,active: 16.4 µM
COc1ccc(OCc2cc(C(=O)NC3Cc4ccccc4C3)no2)c(Cl)c1,,"inconclusive: 10.3 µM [cytotoxic, partial curve]"
